The values below come from PMC3672211.

Amino acid sequences for entries named in this document (tags omitted). Residues count along the entry.
UniProt Q0GXS4, residues 28-595: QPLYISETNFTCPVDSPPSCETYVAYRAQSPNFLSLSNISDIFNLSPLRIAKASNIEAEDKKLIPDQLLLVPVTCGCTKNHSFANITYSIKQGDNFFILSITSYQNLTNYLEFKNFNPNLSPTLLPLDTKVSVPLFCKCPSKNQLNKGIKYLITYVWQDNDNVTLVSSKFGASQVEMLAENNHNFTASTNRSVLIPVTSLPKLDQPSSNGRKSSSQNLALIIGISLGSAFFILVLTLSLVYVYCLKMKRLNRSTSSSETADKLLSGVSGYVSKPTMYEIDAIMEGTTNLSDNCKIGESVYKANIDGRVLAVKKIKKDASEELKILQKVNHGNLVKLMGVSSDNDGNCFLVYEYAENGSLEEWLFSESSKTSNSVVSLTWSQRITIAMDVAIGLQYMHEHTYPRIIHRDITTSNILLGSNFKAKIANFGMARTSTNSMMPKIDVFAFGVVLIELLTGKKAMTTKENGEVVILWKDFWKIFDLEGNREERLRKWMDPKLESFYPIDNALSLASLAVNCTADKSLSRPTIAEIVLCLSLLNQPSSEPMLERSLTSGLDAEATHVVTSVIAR
UniProt O22476, residues 24-1196: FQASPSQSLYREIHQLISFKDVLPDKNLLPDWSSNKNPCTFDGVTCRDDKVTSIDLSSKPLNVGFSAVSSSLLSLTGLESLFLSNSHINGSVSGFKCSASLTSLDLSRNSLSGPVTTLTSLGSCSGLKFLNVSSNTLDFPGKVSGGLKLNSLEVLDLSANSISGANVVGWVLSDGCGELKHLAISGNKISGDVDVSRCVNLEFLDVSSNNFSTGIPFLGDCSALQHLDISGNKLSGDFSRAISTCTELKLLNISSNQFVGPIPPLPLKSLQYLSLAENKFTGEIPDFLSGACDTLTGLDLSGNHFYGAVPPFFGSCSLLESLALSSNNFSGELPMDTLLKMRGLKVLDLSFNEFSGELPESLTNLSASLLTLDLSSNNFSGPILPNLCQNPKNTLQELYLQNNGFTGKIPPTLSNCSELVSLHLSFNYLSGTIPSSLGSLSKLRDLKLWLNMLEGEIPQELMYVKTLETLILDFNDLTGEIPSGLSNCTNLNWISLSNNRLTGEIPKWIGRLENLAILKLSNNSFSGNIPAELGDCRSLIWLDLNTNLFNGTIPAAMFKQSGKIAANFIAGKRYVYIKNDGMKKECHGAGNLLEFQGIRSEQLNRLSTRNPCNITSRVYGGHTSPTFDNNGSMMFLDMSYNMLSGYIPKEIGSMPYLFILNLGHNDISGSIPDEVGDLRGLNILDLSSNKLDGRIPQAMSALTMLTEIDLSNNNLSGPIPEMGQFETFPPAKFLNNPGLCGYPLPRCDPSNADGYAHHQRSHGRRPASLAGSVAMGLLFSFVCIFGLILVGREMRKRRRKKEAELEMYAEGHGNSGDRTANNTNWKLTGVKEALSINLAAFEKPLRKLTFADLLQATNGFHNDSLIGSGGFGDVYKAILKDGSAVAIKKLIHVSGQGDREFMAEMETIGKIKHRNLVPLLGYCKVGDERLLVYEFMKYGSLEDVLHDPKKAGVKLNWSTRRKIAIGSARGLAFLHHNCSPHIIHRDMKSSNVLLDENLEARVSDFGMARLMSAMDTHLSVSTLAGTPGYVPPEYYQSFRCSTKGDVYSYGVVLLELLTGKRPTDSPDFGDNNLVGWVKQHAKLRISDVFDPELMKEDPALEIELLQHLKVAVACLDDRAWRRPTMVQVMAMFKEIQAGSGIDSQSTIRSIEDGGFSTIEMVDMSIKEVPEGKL

No constants are given. Whether binding was seen depends on the method and setting. In cells and extracts the contact can be indirect. For some assays here: Where a sequence is shown, tags or fusion partners need not be part of it.

In test [1] the target is T1, MtLYK3-YFP N (Medicago truncatula LysM domain-containing Receptor-Like Kinase 3 fused to the N-terminal part of split YFP) (Medicago truncatula) (UniProt Q6UD73).
T1 sequence: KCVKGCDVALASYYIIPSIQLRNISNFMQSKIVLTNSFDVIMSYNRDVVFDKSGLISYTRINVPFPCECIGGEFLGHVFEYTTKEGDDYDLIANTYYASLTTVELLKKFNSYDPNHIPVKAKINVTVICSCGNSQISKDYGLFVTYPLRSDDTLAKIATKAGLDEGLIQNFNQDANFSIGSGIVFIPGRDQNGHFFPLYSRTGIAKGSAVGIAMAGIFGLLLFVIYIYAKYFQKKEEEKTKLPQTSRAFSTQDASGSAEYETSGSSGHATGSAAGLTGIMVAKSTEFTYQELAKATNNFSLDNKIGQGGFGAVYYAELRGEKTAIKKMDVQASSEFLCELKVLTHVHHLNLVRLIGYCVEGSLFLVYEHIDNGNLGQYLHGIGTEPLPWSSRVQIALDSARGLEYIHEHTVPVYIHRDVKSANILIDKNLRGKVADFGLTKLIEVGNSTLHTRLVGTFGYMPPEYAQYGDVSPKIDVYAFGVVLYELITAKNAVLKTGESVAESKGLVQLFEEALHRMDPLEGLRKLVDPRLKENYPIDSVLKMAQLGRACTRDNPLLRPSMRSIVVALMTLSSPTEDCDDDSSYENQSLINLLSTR
Briefly: split reporter; BiFluorescence Complementation in Nicotiana benthamiana leaves; Agrobacterium transformants with YFP C and YFP N constructs co-infiltrated at high optical densities (final OD600 = 0.5 each); YFP fluorescence by microscopy.

Test [2] has as its target MtNFP-YFP N (Medicago truncatula Nod Factor Perception fused to the N-terminal part of split YFP) (Medicago truncatula) (UniProt Q0GXS4). Described as above.

As to “AtBRI1-YFP C (Arabidopsis Brassinosteroid Insensitive 1 fused to the C-terminal part of split YFP) (from UniProt O22476 24-1196) (receptor)”, the binding entry in test [1] and in test [2] was “no binding” in each case.
